# Measurements from paper PMC4440618.
# No constants are given. Whether binding was seen depends on the method and setting. For some of these results: Binding calls can cover weak binding; strength is not graded here. For some of these results: Where a sequence is shown, tags or fusion partners need not be part of it. For some of these results: Binding seen in cells or lysates may run through a third protein.
# Tests used:
# [1] = biological target: T1, GST-Caprin2(245–1128) (human (HeLa cell cDNA library)) (UniProt Q6IMN6); assay: pull-down; GST fusion immobilised on glutathione-agarose beads, incubated overnight at 4°C with lysates of transfected HEK 293T cells (1% Triton X-100 buffer); washed three times with PBS; Western blot; only the target purified
# T1 sequence: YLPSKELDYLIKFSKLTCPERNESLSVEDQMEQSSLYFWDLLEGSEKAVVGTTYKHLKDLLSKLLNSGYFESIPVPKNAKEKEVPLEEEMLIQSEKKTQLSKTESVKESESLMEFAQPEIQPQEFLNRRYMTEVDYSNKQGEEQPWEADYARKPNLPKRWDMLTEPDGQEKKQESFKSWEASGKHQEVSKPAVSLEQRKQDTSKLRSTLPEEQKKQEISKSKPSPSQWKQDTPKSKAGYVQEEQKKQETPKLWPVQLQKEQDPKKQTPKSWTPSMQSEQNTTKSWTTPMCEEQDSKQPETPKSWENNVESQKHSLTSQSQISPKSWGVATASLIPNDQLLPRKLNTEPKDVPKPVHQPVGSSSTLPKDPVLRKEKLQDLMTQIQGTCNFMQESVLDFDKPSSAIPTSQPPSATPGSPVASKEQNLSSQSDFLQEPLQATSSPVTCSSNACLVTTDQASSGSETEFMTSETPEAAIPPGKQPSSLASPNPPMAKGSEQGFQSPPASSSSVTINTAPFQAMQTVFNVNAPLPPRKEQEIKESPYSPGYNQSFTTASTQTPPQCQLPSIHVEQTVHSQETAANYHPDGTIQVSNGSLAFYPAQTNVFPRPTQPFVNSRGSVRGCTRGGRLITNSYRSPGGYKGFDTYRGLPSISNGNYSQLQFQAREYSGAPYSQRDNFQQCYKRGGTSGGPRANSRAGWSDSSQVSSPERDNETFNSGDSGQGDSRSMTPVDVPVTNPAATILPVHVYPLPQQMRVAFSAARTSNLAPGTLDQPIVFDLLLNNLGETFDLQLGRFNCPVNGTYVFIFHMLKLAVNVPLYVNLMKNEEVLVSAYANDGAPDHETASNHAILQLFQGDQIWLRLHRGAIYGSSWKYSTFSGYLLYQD
# [2] = biological target: T2, GST-Caprin2(927–1128) (human (HeLa cell cDNA library)) (UniProt Q6IMN6); assay: ELISA; GST fusions from bacterial lysates immobilised on glutathione-coated 96-well plates, washed and blocked; 1 μg purified Cpn1027(210–527) per well; detected with anti-Cpn1027 mAb IE6 and HRP anti-mouse IgG, OD 405 nm; both purified
# T2 sequence: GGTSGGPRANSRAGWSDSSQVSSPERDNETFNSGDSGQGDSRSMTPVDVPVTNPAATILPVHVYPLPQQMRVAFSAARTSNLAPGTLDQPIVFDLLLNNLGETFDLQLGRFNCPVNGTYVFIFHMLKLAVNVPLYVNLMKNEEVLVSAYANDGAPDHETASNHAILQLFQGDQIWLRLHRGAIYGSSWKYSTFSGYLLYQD
# [3] = biological target: T3, GST-Caprin2(245–905) (human (HeLa cell cDNA library)) (UniProt Q6IMN6); assay: as above
# T3 sequence: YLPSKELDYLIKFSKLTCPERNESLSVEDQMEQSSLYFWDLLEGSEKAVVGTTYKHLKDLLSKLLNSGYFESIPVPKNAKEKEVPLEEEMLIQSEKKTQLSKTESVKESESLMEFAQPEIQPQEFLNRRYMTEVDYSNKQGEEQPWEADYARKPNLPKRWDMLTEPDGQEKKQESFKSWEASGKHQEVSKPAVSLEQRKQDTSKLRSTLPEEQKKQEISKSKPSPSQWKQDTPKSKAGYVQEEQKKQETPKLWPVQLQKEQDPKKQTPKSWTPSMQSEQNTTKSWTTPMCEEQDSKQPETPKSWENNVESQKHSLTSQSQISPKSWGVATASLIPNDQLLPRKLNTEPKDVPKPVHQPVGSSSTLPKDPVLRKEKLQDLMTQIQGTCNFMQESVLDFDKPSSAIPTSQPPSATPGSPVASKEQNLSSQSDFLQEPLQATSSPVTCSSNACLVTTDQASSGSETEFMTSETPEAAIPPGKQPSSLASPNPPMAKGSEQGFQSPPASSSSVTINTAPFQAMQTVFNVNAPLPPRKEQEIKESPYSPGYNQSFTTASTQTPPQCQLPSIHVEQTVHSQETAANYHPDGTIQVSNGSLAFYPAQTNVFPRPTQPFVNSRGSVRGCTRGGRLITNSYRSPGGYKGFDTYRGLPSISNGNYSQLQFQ
# [4] = biological target: T1, GST-Caprin2(245–1128) (human (HeLa cell cDNA library)); assay: as above
# [5] = biological target: T4, RFP-Caprin2(245–1128) (human (HeLa cell cDNA library)) (UniProt Q6IMN6); assay: co-IP; HEK 293T co-transfected for 24 h; lysis in 20 mM Tris-HCl, 130 mM NaCl, 10% glycerol, 1% Triton X-100, 2 mM EDTA; rabbit anti-RFP antibodies on protein G Sepharose, overnight 4°C; blot with anti-Cpn1027
# T4 sequence: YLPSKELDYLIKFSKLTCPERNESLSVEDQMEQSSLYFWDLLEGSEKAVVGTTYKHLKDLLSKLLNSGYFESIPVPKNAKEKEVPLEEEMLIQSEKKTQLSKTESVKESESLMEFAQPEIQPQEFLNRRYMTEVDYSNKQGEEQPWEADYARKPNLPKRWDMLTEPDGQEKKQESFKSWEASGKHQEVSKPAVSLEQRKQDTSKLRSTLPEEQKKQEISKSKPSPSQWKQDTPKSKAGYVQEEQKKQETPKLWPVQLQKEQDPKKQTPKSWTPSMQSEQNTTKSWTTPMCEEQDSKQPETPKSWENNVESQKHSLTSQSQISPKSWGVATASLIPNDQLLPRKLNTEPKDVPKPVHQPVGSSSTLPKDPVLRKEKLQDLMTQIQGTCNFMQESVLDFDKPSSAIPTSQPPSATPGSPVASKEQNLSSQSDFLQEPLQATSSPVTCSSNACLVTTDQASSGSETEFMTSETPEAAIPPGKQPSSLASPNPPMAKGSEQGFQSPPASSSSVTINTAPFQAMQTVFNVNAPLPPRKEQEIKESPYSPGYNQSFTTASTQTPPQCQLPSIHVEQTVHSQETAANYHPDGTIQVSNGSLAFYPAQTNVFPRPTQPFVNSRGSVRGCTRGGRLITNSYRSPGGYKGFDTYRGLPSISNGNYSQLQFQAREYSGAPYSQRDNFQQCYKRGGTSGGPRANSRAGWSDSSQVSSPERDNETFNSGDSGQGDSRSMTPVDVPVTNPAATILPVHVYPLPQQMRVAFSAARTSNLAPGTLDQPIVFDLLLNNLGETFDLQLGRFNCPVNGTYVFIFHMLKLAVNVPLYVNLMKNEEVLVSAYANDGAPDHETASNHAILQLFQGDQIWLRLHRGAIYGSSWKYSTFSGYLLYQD
# [6] = biological target: Gal4DB-Cpn1027(210–527) (Chlamydia pneumoniae AR39); assay: two-hybrid; ProQuest system, MaV203 yeast; bait in pDBLeu (GAL4 DBD), prey in pEXP-AD502 (GAL4 AD); growth on -LW, -LWH with 50 mM 3AT, and -LWU
# [7] = biological target: GST-Cpn1027(1–209) (Chlamydia pneumoniae AR39); assay: pull-down; GST fusion immobilised on glutathione-agarose beads, incubated overnight at 4°C with lysates of transfected HEK 293T cells (1% Triton X-100 buffer); washed three times with PBS; Western blot; only the target purified
# [8] = biological target: GST-Cpn1027(210–365) (Chlamydia pneumoniae AR39); assay: as above
# [9] = biological target: GST-Cpn1027(366–527) (Chlamydia pneumoniae AR39); assay: as above
# [10] = biological target: GST-Cpn1027(210–527) (Chlamydia pneumoniae AR39); assay: as above
molecule,measurement,setting,value
RFP-Cpn1027 (Chlamydia pneumoniae AR39),binding,[1],binds
purified Cpn1027(210–527) protein (no GST tag) (Chlamydia pneumoniae AR39) (domain or fragment),binding,[2],binds
same,binding,[3],no binding (tested: 1 μg per well)
same,binding,[4],binds
FLAG-Cpn1027(210–527) (Chlamydia pneumoniae AR39) (domain or fragment),binding,[5],binds
"Gal4AD-Caprin2(245–1128) (domain or fragment, UniProt Q6IMN6 245-1127) YLPSKELDYLIKFSKLTCPERNESLSVEDQMEQSSLYFWDLLEGSEKAVVGTTYKHLKDLLSKLLNSGYFESIPVPKNAKEKEVPLEEEMLIQSEKKTQLSKTESVKESESLMEFAQPEIQPQEFLNRRYMTEVDYSNKQGEEQPWEADYARKPNLPKRWDMLTEPDGQEKKQESFKSWEASGKHQEVSKPAVSLEQRKQDTSKLRSTLPEEQKKQEISKSKPSPSQWKQDTPKSKAGYVQEEQKKQETPKLWPVQLQKEQDPKKQTPKSWTPSMQSEQNTTKSWTTPMCEEQDSKQPETPKSWENNVESQKHSLTSQSQISPKSWGVATASLIPNDQLLPRKLNTEPKDVPKPVHQPVGSSSTLPKDPVLRKEKLQDLMTQIQGTCNFMQESVLDFDKPSSAIPTSQPPSATPGSPVASKEQNLSSQSDFLQEPLQATSSPVTCSSNACLVTTDQASSGSETEFMTSETPEAAIPPGKQPSSLASPNPPMAKGSEQGFQSPPASSSSVTINTAPFQAMQTVFNVNAPLPPRKEQEIKESPYSPGYNQSFTTASTQTPPQCQLPSIHVEQTVHSQETAANYHPDGTIQVSNGSLAFYPAQTNVFPRPTQPFVNSRGSVRGCTRGGRLITNSYRSPGGYKGFDTYRGLPSISNGNYSQLQFQAREYSGAPYSQRDNFQQCYKRGGTSGGPRANSRAGWSDSSQVSSPERDNETFNSGDSGQGDSRSMTPVDVPVTNPAATILPVHVYPLPQQMRVAFSAARTSNLAPGTLDQPIVFDLLLNNLGETFDLQLGRFNCPVNGTYVFIFHMLKLAVNVPLYVNLMKNEEVLVSAYANDGAPDHETASNHAILQLFQGDQIWLRLHRGAIYGSSWKYSTFSGYLLYQD",binding,[6],binds
"RFP-Caprin2(245–1128) (domain or fragment, UniProt Q6IMN6 245-1127) YLPSKELDYLIKFSKLTCPERNESLSVEDQMEQSSLYFWDLLEGSEKAVVGTTYKHLKDLLSKLLNSGYFESIPVPKNAKEKEVPLEEEMLIQSEKKTQLSKTESVKESESLMEFAQPEIQPQEFLNRRYMTEVDYSNKQGEEQPWEADYARKPNLPKRWDMLTEPDGQEKKQESFKSWEASGKHQEVSKPAVSLEQRKQDTSKLRSTLPEEQKKQEISKSKPSPSQWKQDTPKSKAGYVQEEQKKQETPKLWPVQLQKEQDPKKQTPKSWTPSMQSEQNTTKSWTTPMCEEQDSKQPETPKSWENNVESQKHSLTSQSQISPKSWGVATASLIPNDQLLPRKLNTEPKDVPKPVHQPVGSSSTLPKDPVLRKEKLQDLMTQIQGTCNFMQESVLDFDKPSSAIPTSQPPSATPGSPVASKEQNLSSQSDFLQEPLQATSSPVTCSSNACLVTTDQASSGSETEFMTSETPEAAIPPGKQPSSLASPNPPMAKGSEQGFQSPPASSSSVTINTAPFQAMQTVFNVNAPLPPRKEQEIKESPYSPGYNQSFTTASTQTPPQCQLPSIHVEQTVHSQETAANYHPDGTIQVSNGSLAFYPAQTNVFPRPTQPFVNSRGSVRGCTRGGRLITNSYRSPGGYKGFDTYRGLPSISNGNYSQLQFQAREYSGAPYSQRDNFQQCYKRGGTSGGPRANSRAGWSDSSQVSSPERDNETFNSGDSGQGDSRSMTPVDVPVTNPAATILPVHVYPLPQQMRVAFSAARTSNLAPGTLDQPIVFDLLLNNLGETFDLQLGRFNCPVNGTYVFIFHMLKLAVNVPLYVNLMKNEEVLVSAYANDGAPDHETASNHAILQLFQGDQIWLRLHRGAIYGSSWKYSTFSGYLLYQD",binding,[7],no binding
same,binding,[8],no binding
same,binding,[9],binds
same,binding,[10],binds
